Source: paper PMC7532188

Chains of the proteins cited; added tags and fusions are not shown. Lines headed by an entry give the natural chain unless they say otherwise; changes in a name come on top.
UniProt Q9UK61: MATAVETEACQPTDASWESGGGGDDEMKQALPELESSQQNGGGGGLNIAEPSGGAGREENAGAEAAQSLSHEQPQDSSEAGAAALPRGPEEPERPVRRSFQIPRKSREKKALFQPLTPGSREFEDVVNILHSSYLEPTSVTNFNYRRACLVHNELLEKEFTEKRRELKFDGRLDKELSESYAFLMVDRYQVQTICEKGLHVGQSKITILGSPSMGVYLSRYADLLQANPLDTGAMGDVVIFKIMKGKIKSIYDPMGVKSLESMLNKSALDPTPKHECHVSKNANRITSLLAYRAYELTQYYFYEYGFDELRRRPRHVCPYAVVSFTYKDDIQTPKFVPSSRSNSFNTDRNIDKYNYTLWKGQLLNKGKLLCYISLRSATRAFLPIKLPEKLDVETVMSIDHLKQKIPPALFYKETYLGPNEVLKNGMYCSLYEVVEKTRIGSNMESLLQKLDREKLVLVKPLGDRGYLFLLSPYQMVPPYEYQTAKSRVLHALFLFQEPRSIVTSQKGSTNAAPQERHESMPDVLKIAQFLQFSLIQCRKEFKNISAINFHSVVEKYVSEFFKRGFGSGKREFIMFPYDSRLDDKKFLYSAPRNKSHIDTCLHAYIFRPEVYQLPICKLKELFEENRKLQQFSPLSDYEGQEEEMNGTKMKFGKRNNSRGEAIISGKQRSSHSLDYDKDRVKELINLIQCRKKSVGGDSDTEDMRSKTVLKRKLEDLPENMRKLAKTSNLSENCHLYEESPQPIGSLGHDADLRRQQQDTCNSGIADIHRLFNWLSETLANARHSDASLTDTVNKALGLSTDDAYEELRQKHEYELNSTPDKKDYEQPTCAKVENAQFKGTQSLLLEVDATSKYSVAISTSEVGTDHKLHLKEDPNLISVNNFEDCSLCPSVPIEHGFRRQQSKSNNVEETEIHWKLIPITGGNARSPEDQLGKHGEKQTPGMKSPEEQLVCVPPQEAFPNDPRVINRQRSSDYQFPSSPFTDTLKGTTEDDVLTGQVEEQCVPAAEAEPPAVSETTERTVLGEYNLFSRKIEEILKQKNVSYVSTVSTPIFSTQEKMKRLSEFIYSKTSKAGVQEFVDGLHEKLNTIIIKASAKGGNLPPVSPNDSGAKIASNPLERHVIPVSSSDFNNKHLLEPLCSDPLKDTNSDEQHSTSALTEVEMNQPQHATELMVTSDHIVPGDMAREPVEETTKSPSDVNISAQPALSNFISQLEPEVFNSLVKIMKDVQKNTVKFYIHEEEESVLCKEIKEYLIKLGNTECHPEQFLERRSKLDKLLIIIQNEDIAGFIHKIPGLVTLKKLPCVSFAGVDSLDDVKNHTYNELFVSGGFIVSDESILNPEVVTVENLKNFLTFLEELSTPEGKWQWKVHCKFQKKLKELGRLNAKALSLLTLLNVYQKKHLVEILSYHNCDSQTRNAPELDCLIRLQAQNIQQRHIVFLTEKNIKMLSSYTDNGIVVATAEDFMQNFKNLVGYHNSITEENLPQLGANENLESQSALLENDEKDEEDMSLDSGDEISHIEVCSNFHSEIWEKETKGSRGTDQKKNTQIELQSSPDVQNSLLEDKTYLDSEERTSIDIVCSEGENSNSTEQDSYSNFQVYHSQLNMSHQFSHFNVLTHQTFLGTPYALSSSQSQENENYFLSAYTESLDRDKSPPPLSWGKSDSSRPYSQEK
UniProt Q5VUA4: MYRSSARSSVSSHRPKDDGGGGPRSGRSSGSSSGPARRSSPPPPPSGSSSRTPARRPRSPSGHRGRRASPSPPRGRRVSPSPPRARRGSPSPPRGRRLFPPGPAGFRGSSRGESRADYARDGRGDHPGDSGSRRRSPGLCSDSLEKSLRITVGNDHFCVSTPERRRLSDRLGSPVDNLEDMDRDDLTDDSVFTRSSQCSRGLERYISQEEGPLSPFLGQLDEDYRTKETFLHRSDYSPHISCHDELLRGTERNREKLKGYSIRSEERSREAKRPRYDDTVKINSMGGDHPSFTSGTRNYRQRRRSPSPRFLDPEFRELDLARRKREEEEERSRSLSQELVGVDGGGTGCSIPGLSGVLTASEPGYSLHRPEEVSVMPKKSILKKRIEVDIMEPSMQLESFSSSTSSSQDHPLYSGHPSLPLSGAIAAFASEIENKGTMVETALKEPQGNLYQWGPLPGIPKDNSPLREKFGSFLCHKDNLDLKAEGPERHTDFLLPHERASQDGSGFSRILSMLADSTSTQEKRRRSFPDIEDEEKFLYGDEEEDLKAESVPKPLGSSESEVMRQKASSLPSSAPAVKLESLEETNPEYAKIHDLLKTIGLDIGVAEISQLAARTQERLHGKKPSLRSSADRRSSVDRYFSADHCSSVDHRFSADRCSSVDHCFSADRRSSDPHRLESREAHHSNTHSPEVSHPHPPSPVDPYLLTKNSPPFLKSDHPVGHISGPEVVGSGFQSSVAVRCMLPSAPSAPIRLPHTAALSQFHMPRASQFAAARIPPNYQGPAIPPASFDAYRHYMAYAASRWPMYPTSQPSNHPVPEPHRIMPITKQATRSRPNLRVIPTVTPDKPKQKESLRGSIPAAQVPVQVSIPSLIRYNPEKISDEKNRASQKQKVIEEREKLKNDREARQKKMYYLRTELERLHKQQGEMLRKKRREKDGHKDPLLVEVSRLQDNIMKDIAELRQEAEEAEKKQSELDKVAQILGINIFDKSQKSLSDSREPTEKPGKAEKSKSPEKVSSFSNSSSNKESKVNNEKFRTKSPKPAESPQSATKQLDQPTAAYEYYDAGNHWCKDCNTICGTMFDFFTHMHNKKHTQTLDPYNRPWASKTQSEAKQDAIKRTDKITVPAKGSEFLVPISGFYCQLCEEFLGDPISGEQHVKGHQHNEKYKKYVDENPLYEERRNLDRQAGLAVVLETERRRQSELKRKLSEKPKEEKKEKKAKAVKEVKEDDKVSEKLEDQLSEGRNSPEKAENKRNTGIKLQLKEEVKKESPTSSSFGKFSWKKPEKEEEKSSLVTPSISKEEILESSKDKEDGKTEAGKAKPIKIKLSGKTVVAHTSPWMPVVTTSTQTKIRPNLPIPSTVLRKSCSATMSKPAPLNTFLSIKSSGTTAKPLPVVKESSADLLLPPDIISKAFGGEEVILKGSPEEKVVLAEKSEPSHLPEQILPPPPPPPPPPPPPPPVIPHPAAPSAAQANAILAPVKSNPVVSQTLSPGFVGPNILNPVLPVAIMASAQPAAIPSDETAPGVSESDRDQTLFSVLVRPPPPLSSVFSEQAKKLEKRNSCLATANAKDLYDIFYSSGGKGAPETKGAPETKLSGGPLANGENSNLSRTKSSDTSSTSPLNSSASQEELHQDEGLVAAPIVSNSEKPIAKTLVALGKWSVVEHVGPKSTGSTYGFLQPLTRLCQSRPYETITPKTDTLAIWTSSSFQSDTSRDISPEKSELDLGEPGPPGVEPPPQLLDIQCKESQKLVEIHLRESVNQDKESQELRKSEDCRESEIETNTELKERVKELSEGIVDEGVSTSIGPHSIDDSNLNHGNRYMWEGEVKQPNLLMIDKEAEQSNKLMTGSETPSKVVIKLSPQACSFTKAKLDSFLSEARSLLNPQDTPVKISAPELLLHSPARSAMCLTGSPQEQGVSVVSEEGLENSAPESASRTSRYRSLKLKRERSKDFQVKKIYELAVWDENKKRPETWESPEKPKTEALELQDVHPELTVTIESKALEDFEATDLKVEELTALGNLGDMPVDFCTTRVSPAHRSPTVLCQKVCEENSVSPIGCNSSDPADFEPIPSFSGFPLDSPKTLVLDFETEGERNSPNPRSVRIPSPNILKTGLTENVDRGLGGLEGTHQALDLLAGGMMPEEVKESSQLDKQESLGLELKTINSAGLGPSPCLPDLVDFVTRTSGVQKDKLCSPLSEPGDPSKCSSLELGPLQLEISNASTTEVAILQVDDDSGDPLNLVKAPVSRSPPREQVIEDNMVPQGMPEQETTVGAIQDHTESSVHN
UniProt Q14966: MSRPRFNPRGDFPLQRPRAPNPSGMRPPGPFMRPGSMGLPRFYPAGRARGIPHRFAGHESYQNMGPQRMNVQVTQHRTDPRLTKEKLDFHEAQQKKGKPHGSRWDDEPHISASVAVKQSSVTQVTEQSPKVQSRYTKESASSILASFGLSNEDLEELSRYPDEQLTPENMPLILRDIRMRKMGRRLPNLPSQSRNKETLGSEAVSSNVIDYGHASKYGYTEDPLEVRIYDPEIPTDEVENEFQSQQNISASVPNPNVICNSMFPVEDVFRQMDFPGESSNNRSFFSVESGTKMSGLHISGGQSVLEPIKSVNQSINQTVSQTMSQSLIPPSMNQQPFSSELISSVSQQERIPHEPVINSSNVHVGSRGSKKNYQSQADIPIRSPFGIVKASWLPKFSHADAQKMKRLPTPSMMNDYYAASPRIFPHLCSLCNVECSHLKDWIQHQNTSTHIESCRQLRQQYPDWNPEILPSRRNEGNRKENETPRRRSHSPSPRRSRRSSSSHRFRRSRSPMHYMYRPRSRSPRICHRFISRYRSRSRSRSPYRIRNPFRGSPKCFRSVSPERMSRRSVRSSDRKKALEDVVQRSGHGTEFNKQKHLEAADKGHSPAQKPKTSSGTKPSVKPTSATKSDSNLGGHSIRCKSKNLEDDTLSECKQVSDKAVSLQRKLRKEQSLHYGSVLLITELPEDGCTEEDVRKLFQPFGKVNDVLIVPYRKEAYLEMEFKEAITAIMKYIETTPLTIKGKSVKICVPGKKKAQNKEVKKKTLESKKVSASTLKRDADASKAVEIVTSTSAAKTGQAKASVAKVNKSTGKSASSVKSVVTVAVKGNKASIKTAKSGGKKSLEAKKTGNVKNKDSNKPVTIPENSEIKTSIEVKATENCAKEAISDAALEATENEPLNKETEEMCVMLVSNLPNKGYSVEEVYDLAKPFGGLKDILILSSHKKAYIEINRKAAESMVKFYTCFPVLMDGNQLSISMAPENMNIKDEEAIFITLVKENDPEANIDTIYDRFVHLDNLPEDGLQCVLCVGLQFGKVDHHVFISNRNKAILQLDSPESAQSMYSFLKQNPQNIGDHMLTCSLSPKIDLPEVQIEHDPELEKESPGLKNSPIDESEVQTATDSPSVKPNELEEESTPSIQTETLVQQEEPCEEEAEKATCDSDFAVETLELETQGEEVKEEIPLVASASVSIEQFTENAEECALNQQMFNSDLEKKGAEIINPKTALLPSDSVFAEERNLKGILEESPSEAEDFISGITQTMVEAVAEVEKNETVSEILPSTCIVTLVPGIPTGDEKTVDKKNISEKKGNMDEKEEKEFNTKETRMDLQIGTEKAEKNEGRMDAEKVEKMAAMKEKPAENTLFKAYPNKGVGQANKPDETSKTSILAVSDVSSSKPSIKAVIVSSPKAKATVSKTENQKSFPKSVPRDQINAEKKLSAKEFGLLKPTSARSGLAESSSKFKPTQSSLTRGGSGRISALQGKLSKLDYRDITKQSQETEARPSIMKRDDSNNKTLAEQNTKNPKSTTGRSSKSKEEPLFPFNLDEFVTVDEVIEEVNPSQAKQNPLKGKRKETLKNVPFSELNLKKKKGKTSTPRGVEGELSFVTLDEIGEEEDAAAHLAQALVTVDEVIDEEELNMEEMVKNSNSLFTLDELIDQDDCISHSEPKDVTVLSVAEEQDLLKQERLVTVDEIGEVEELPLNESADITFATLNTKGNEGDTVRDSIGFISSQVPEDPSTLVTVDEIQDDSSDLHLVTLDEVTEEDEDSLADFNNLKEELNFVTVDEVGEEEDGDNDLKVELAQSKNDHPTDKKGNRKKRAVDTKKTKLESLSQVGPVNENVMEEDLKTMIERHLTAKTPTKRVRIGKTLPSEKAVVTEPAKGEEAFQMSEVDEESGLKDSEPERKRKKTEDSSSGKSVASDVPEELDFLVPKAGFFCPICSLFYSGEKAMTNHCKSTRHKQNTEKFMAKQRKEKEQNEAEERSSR

B1: CCNK (protein, UniProt O75909 1-580)
chain: MKENKENSSPSVTSANLDHTKPCWYWDKKDLAHTPSQLEGLDPATEARYRREGARFIFDVGTRLGLHYDTLATGIIYFHRFYMFHSFKQFPRYVTGACCLFLAGKVEETPKKCKDIIKTARSLLNDVQFGQFGDDPKEEVMVLERILLQTIKFDLQVEHPYQFLLKYAKQLKGDKNKIQKLVQMAWTFVNDSLCTTLSLQWEPEIIAVAVMYLAGRLCKFEIQEWTSKPMYRRWWEQFVQDVPVDVLEDICHQILDLYSQGKQQMPHHTPHQLQQPPSLQPTPQVPQVQQSQPSQSSEPSQPQQKDPQQPAQQQQPAQQPKKPSPQPSSPRQVKRAVVVSPKEENKAAEPPPPKIPKIETTHPPLPPAHPPPDRKPPLAAALGEAEPPGPVDATDLPKVQIPPPAHPAPVHQPPPLPHRPPPPPPSSYMTGMSTTSSYMSGEGYQSLQSMMKTEGPSYGALPPAYGPPAHLPYHPHVYPPNPPPPPVPPPPASFPPPAIPPPTPGYPPPPPTYNPNFPPPPPRLPPTHAVPPHPPPGLGLPPASYPPPAVPPGGQPPVPPPIPPPGMPPVGGLGRAAWMR
B2: MED19 (protein, UniProt A0JLT2 1-244)
chain: MENFTALFGAQADPPPPPTALGFGPGKPPPPPPPPAGGGPGTAPPPTAATAPPGADKSGAGCGPFYLMRELPGSTELTGSTNLITHYNLEQAYNKFCGKKVKEKLSNFLPDLPGMIDLPGSHDNSSLRSLIEKPPILSSSFNPITGTMLAGFRLHTGPLPEQCRLMHIQPPKKKNKHKHKQSRTQDPVPPETPSDSDHKKKKKKKEEDPDRKRKKKEKKKKKNRHSPDHPGMGSSQASSSSSLR
B3: FIP1L1 (protein, UniProt Q6UN15 1-594)
chain: MSAGEVERLVSELSGGTGGDEEEEWLYGGPWDVHVHSDLAKDLDENEVERPEEENASANPPSGIEDETAENGVPKPKVTETEDDSDSDSDDDEDDVHVTIGDIKTGAPQYGSYGTAPVNLNIKTGGRVYGTTGTKVKGVDLDAPGSINGVPLLEVDLDSFEDKPWRKPGADLSDYFNYGFNEDTWKAYCEKQKRIRMGLEVIPVTSTTNKITAEDCTMEVTPGAEIQDGRFNLFKVQQGRTGNSEKETALPSTKAEFTSPPSLFKTGLPPSRNSTSSQSQTSTASRKANSSVGKWQDRYGRAESPDLRRLPGAIDVIGQTITISRVEGRRRANENSNIQVLSERSATEVDNNFSKPPPFFPPGAPPTHLPPPPFLPPPPTVSTAPPLIPPPGFPPPPGAPPPSLIPTIESGHSSGYDSRSARAFPYGNVAFPHLPGSAPSWPSLVDTSKQWDYYARREKDRDRERDRDRERDRDRDRERERTRERERERDHSPTPSVFNSDEERYRYREYAERGYERHRASREKEERHRERRHREKEETRHKSSRSNSRRRHESEEGDSHRRHKHKKSKRSKEGKEAGSEPAPEQESTEATPAE
B4: TOX4 (protein, UniProt O94842 1-621)
chain: MEFPGGNDNYLTITGPSHPFLSGAETFHTPSLGDEEFEIPPISLDSDPSLAVSDVVGHFDDLADPSSSQDGSFSAQYGVQTLDMPVGMTHGLMEQGGGLLSGGLTMDLDHSIGTQYSANPPVTIDVPMTDMTSGLMGHSQLTTIDQSELSSQLGLSLGGGTILPPAQSPEDRLSTTPSPTSSLHEDGVEDFRRQLPSQKTVVVEAGKKQKAPKKRKKKDPNEPQKPVSAYALFFRDTQAAIKGQNPNATFGEVSKIVASMWDSLGEEQKQVYKRKTEAAKKEYLKALAAYKDNQECQATVETVELDPAPPSQTPSPPPMATVDPASPAPASIEPPALSPSIVVNSTLSSYVANQASSGAGGQPNITKLIITKQMLPSSITMSQGGMVTVIPATVVTSRGLQLGQTSTATIQPSQQAQIVTRSVLQAAAAAAAAASMQLPPPRLQPPPLQQMPQPPTQQQVTILQQPPPLQAMQQPPPQKVRINLQQQPPPLQIKSVPLPTLKMQTTLVPPTVESSPERPMNNSPEAHTVEAPSPETICEMITDVVPEVESPSQMDVELVSGSPVALSPQPRCVRSGCENPPIVSKDWDNEYCSNECVVKHCRDVFLAWVASRNSNTVVFVK
B5: PPP1R10 (protein, UniProt Q96QC0 1-940)
chain: MGSGPIDPKELLKGLDSFLNRDGEVKSVDGISKIFSLMKEARKMVSRCTYLNILLQTRSPEILVKFIDVGGYKLLNNWLTYSKTTNNIPLLQQILLTLQHLPLTVDHLKQNNTAKLVKQLSKSSEDEELRKLASVLVSDWMAVIRSQSSTQPAEKDKKKRKDEGKSRTTLPERPLTEVKAETRAEEAPEKKREKPKSLRTTAPSHAKFRSTGLELETPSLVPVKKNASTVVVSDKYNLKPIPLKRQSNVAAPGDATPPAEKKYKPLNTTPNATKEIKVKIIPPQPMEGLGFLDALNSAPVPGIKIKKKKKVLSPTAAKPSPFEGKTSTEPSTAKPSSPEPAPPSEAMDADRPGTPVPPVEVPELMDTASLEPGALDAKPVESPGDPNQLTRKGRKRKSVTWPEEGKLREYFYFELDETERVNVNKIKDFGEAAKREILSDRHAFETARRLSHDNMEEKVPWVCPRPLVLPSPLVTPGSNSQERYIQAEREKGILQELFLNKESPHEPDPEPYEPIPPKLIPLDEECSMDETPYVETLEPGGSGGSPDGAGGSKLPPVLANLMGSMGAGKGPQGPGGGGINVQEILTSIMGSPNSHPSEELLKQPDYSDKIKQMLVPHGLLGPGPIANGFPPGGPGGPKGMQHFPPGPGGPMPGPHGGPGGPVGPRLLGPPPPPRGGDPFWDGPGDPMRGGPMRGGPGPGPGPYHRGRGGRGGNEPPPPPPPFRGARGGRSGGGPPNGRGGPGGGMVGGGGHRPHEGPGGGMGNSSGHRPHEGPGGGMGSGHRPHEGPGGSMGGGGGHRPHEGPGGGISGGSGHRPHEGPGGGMGAGGGHRPHEGPGGSMGGSGGHRPHEGPGHGGPHGHRPHDVPGHRGHDHRGPPPHEHRGHDGPGHGGGGHRGHDGGHSHGGDMSNRPVCRHFMMKGNCRYENNCAFYHPGVNGPPLP

Assays:
Experiment in all cases: proximity labelling; BioID: HA-BirA-tagged TASOR variants in TASOR knockout cells, 50 μM biotin for 18 h, nuclei lysed, streptavidin beads, mass spectrometry; control: TASOR knockout cells with biotin but without BirA-tagged TASOR
[1] = target: HA-BirA-TASOR, full-length (human) (UniProt Q9UK61)
[2] = target: HA-BirA-TASOR Y305A (human) (UniProt Q9UK61)
[3] = target: HA-BirA-TASOR ΔPARP (human)

Molecule	binding [1]	binding [2]	binding [3]
ZNF318 (from UniProt Q5VUA4 1-2279)	binds	binds	
endogenous MPP8 (from UniProt Q99549-1 1-860)	binds	binds	
ZNF638 (NP220) (from UniProt Q14966 1-1978)	binds	binds	
B1	binds	binds	binds
B2	binds	binds	binds
B3	binds	binds	binds
B4	binds	binds	binds
B5	binds	binds	binds

These are yes or no findings as the source states them, for the method shown. Binding seen in cells or lysates may run through a third protein. Here binding means that the protein was enriched with, or labelled near, the bait; the list need not be complete.
